Test results reported in the supplement of paper PMC10849652.
The other results are listed elsewhere or left out.

Chains of the proteins cited; added tags and fusions are not shown. Lines headed by an entry give the natural chain unless they say otherwise; changes in a name come on top.
UniProt Q5EBM0: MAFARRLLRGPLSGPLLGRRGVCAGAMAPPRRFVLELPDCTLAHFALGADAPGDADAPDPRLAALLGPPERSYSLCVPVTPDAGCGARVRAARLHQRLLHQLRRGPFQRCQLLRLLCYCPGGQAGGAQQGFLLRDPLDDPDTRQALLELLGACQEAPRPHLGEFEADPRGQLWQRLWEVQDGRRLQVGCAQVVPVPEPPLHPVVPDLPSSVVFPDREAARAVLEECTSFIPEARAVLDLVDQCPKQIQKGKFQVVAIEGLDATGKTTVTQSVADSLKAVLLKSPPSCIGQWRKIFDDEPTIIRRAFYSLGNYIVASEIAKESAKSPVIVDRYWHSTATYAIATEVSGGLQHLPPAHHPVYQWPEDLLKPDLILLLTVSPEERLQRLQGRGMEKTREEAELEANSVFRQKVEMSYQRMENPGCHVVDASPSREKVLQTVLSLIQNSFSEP
UniProt O76031, whole entry, looked up: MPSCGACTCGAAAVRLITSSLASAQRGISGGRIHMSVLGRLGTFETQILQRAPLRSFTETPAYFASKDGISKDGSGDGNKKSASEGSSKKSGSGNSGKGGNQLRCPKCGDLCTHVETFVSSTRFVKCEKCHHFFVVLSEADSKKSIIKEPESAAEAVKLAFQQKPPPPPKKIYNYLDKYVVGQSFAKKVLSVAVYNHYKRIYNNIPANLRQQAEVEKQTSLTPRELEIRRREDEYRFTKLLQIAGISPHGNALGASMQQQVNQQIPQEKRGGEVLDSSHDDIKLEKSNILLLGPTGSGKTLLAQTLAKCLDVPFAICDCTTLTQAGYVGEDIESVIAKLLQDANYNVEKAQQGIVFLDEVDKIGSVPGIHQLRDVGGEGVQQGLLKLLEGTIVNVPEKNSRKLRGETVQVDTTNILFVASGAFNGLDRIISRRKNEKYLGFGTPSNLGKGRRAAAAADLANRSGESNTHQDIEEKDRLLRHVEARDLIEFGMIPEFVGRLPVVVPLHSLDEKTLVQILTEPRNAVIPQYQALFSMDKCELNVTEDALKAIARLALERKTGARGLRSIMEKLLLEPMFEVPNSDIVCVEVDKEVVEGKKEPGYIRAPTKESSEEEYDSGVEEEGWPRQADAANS
UniProt Q8NCH0: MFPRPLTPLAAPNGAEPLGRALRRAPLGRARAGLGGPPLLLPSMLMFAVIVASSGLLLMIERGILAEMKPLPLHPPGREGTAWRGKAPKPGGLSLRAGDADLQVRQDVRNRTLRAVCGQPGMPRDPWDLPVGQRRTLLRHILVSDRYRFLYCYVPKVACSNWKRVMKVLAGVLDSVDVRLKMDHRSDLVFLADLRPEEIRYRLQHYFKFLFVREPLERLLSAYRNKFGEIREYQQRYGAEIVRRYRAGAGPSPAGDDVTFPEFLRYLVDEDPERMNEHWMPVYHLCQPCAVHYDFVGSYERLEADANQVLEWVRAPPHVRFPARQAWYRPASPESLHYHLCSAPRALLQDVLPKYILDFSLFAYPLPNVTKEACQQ
UniProt Q9HD42: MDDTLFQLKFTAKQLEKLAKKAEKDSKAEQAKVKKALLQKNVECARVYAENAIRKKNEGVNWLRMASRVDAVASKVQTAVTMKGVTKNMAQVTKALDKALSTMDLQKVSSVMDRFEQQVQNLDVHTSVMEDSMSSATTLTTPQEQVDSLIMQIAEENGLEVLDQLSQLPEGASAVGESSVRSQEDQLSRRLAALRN
UniProt O15247: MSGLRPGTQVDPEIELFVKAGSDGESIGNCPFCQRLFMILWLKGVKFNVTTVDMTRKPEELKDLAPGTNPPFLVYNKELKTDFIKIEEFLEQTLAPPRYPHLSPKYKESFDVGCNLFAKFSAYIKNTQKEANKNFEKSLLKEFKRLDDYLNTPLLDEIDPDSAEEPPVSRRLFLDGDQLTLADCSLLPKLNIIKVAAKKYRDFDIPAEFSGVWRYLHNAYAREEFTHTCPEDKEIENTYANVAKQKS
UniProt Q7LBR1: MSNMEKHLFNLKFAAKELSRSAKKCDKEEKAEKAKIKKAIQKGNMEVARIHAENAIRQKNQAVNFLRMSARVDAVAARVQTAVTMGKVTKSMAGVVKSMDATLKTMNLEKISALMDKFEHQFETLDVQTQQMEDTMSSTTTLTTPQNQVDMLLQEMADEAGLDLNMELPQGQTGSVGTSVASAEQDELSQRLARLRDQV
UniProt P62633: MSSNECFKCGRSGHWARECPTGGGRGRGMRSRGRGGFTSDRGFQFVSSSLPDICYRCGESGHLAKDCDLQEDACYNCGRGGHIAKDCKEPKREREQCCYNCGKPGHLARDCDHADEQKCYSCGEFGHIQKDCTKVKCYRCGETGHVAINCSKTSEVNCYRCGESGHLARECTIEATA
UniProt Q8N0X4: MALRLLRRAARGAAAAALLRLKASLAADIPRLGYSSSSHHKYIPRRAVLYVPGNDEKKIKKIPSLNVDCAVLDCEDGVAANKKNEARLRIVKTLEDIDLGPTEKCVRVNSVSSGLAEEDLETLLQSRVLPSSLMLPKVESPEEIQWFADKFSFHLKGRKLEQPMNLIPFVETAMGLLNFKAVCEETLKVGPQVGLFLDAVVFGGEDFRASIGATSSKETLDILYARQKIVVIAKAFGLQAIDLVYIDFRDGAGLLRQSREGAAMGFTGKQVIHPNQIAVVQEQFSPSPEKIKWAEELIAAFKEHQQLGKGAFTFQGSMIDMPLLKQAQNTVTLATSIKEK
UniProt P26374: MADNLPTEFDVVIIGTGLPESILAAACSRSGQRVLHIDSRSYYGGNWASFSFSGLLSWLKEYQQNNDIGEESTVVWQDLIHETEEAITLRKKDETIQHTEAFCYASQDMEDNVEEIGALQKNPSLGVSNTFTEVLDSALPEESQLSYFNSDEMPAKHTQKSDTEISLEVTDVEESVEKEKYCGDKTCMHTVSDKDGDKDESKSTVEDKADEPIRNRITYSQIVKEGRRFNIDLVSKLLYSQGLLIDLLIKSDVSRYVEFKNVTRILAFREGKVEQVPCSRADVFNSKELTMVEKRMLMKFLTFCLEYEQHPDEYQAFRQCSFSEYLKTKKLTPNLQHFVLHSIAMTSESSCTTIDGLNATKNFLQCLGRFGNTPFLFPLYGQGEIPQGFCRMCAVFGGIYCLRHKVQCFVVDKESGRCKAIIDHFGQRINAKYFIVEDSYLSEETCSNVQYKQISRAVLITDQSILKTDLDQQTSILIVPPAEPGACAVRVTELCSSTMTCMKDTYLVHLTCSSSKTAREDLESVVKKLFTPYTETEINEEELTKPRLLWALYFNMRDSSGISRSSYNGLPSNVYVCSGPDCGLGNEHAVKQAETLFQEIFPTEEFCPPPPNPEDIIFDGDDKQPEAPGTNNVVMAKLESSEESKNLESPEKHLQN
UniProt Q13112, whole entry, looked up: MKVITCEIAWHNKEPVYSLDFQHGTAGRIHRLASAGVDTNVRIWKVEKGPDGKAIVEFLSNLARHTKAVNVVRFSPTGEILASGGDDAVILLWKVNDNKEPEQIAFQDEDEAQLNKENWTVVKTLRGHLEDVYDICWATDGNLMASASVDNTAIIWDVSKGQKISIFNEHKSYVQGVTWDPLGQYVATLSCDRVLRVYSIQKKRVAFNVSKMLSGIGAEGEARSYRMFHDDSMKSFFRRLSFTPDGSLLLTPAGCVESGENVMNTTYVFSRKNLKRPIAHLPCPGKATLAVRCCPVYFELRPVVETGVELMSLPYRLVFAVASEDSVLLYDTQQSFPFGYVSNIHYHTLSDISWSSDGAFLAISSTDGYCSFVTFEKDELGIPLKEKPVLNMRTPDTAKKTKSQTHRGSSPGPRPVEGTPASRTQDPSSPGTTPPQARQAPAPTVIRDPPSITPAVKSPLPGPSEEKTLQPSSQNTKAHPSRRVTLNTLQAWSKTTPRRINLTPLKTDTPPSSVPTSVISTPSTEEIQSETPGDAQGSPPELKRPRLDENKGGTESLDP
UniProt Q9Y259: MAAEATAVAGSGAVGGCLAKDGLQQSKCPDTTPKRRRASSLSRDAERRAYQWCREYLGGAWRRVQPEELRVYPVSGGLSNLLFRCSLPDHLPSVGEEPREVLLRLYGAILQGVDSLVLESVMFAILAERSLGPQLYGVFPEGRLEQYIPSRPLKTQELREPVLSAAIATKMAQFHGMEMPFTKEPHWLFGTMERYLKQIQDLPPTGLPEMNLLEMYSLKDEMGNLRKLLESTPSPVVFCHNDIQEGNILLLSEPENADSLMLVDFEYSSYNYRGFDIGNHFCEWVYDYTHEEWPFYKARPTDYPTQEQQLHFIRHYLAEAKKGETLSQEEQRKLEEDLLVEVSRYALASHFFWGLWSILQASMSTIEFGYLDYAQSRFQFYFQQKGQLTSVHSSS
UniProt Q8IY22: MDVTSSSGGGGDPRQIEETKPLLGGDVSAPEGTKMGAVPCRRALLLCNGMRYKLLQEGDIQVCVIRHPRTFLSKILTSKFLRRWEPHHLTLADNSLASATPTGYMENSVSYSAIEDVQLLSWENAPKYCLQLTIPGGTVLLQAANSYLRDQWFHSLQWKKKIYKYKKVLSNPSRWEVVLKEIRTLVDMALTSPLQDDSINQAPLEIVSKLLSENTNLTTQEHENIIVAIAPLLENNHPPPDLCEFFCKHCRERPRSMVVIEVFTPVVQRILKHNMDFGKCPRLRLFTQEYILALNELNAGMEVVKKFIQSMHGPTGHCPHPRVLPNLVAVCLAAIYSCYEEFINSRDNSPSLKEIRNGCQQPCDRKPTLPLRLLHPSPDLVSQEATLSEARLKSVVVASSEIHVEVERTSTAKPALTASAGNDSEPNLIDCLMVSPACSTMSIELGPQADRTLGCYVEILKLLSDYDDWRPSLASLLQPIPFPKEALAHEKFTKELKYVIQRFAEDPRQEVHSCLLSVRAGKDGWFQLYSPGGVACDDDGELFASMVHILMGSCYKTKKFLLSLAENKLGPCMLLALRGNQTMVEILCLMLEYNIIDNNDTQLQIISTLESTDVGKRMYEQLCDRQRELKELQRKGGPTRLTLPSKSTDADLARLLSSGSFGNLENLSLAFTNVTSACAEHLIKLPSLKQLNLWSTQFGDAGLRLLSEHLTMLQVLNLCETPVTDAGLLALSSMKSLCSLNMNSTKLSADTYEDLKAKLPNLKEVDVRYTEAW
UniProt P30085: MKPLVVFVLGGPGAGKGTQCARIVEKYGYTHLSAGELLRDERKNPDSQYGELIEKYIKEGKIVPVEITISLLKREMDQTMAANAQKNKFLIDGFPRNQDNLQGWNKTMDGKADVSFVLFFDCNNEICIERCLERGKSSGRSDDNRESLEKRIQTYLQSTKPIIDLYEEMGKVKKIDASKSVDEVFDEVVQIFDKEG
UniProt Q9Y3E7, whole entry, looked up: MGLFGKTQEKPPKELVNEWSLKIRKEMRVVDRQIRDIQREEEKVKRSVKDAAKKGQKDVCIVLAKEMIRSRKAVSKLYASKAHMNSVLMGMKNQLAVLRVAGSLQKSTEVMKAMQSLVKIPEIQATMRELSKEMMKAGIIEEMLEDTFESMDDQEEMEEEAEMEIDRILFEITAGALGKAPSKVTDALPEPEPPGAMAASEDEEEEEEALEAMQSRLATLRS
UniProt Q96JM3: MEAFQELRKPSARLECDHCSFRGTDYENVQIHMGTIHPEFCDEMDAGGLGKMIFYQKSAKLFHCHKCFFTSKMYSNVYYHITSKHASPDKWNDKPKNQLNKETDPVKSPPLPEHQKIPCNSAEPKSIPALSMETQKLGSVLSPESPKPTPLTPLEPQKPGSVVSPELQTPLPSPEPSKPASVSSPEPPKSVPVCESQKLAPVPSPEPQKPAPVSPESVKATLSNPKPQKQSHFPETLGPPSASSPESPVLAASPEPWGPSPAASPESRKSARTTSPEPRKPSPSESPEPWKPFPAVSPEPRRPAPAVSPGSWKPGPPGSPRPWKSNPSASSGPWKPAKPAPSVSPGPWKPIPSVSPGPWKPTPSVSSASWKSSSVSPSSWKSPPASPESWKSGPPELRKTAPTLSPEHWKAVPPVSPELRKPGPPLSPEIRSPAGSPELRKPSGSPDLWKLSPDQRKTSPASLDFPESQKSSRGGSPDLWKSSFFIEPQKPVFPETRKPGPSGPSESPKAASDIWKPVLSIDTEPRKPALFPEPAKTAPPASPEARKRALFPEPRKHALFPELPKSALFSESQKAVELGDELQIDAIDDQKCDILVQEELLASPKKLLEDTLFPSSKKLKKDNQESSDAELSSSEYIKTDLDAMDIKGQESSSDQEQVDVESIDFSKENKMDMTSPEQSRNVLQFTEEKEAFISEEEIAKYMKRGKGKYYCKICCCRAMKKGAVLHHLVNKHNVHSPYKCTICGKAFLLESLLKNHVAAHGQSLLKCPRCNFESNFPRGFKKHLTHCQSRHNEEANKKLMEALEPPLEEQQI
UniProt Q9BUK0: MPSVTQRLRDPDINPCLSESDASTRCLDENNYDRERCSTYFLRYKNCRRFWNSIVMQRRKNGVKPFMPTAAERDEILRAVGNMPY
UniProt Q9NZZ3: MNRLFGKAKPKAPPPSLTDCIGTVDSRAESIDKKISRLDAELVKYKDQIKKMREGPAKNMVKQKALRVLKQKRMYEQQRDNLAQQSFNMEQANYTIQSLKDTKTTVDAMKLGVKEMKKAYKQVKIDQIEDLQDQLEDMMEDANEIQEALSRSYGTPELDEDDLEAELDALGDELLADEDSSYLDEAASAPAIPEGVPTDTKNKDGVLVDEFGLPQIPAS

Tests used:
Assay in all cases: log2 fold change, soluble protein after heating vs DMSO (PISA); higher = thermal stabilisation; K562 lysate, 10 uM; active = over 0.2 and 3.5 SD of the protein, either way, in both replicates (recomputed)
[1] = compound: Cc1cn(-c2cc(NC(=O)c3ccc(C)c(Nc4nccc(-c5cccnc5)n4)c3)cc(C(F)(F)F)c2)cn1 [nilotinib]
In short: (§1)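 Values give the log-two fold change in thermal stability against solvent controls, from duplicates. Crude K562 extract at 1 mg/mL protein, made by dounce homogenisation in PBS pH 7.4 with 1 mM MgCl2, was treated with 10 μM compound for 30 min. After 3 min heating across 48°C-58°C, aliquots were pooled, adjusted to 0.5% NP-40 at 4°C and centrifuged at 21,000xg for 90 min. The supernatant was measured by TMTpro 16plex LC-MS/MS with channel sums equalised.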

[2] = compound: Cc1nc(Nc2n[nH]c3c2CN(C(=O)N[C@H](CN(C)C)c2ccccc2)C3(C)C)c2sccc2n1
In short: as §1

[3] = compound: Cc1nc(Nc2ncc(C(=O)Nc3c(C)cccc3Cl)s2)cc(N2CCN(CCO)CC2)n1 [dasatinib]
In short: as §1

[4] = compound: Cc1ncc(-c2ccnc(Nc3ccc(S(C)(=O)=O)cc3)n2)n1C(C)C
In short: as §1

[5] = compound: Cn1cc(-c2ccc3c(c2)CCN3C(=O)Cc2cccc(C(F)(F)F)c2)c2c(N)ncnc21
In short: as §1

[6] = compound: Cn1cc(CNCC2CCN(c3ncc(C(=O)NO)cn3)CC2)c2ccccc21 [quisinostat]
In short: as §1

[7] = compound: Cn1cncc1[C@@](N)(c1ccc(Cl)cc1)c1ccc2c(c1)c(-c1cccc(Cl)c1)cc(=O)n2C [tipifarnib]
In short: as §1

[8] = compound: NC(=O)Nc1cc(-c2cccc(F)c2)sc1C(=O)N[C@H]1CCCNC1
In short: as §1

[9] = compound: NC(=O)c1cnc(N[C@@H]2CCCC[C@@H]2N)nc1Nc1cccc(-n2nccn2)c1
In short: as §1

[10] = compound: NC1(c2ccc(-c3nc4ccn5c(=O)[nH]nc5c4cc3-c3ccccc3)cc2)CCC1
In short: as §1

Measured: log2 fold change

CMPK2 (UniProt Q5EBM0)
inactive: [1] -0.075 | [2] -0.01 | [3] -0.067 | [4] 0.005 | [5] -0.011 | [6] -0.02 | [7] 0.042 | [8] 0.032 | [9] -0.006 | [10] 0.013

CHD1 (UniProt O14646)
inactive: [1] -0.038 | [2] 0.08 | [3] 0.161 | [4] -0.054 | [5] 0.135 | [6] -0.13 | [7] -0.003 | [8] 0.034 | [9] -0.155 | [10] -0.033

CLPX (UniProt O76031)
inactive: [1] -0.01 | [2] -0.007 | [3] -0.017 | [4] 0.044 | [5] -0.003 | [6] -0.022 | [7] 0.068 | [8] 0.063 | [9] 0.001 | [10] 0.029

CHST14 (UniProt Q8NCH0)
inactive: [1] -0.009 | [2] -0.204 | [3] -0.1 | [4] 0.07 | [5] 0.148 | [6] -0.08 | [7] 0.004 | [8] 0.069

CHMP1A (UniProt Q9HD42)
inactive: [1] -0.014 | [2] 0.023 | [3] 0.031 | [4] -0.026 | [5] 0.038 | [6] 0.008 | [7] 0.021 | [8] -0.035 | [9] -0.044 | [10] -0.001

Pulled one by one from the list above, 2 records:
CHD1 (UniProt O14646)
inactive: [1] -0.038 | [2] 0.08 | [3] 0.161 | [4] -0.054 | [5] 0.135 | [6] -0.13 | [7] -0.003 | [8] 0.034 | [9] -0.155 | [10] -0.033

CHMP1A (UniProt Q9HD42)
inactive: [1] -0.014 | [2] 0.023 | [3] 0.031 | [4] -0.026 | [5] 0.038 | [6] 0.008 | [7] 0.021 | [8] -0.035 | [9] -0.044 | [10] -0.001

Next part.

CINP isoform 3 (UniProt Q9BW66)
inactive: [1] -0.13 | [2] 0.065 | [3] -0.073 | [4] 0.19 | [5] 0.024 | [6] 0.015 | [7] -0.009 | [8] 0.034 | [9] 0.03

CLIC2 (UniProt O15247)
inactive: [1] 0.029 | [2] -0.032 | [3] -0.017 | [4] 0.004 | [5] -0.022 | [6] -0.019 | [7] -0.024 | [8] 0.023 | [9] 0.004 | [10] -0.005

CHD6 (UniProt Q8TD26)
inactive: [1] -0.001 | [2] 0.006 | [3] 0.055 | [4] -0.032 | [5] 0.076 | [6] -0.035 | [7] 0.022 | [8] -0.074

CHMP1B (UniProt Q7LBR1)
inactive: [1] -0.102 | [2] -0.004 | [3] 0.005 | [4] -0.028 | [5] 0 | [6] -0.005 | [7] -0.011 | [8] -0.015 | [9] 0.048 | [10] 0.007

CNBP isoform 4 (UniProt P62633)
inactive: [1] 0.132 | [2] 0.124 | [3] -0.168 | [4] 0.1 | [5] -0.109 | [6] 0.118 | [7] -0.009 | [8] -0.128 | [9] -0.041 | [10] -0.084

CIZ1 (UniProt Q9ULV3)
inactive: [1] 0.043 | [2] -0.021 | [3] -0.005 | [4] -0.047 | [5] 0.008 | [6] -0.023 | [7] -0.033 | [8] 0.028 | [9] -0.024 | [10] -0.02

CLYBL (UniProt Q8N0X4)
inactive: [1] -0.16 | [2] 0.008 | [3] -0.04 | [4] 0.048 | [5] -0.167 | [6] 0.179 | [7] 0.332 | [8] -0.105 | [9] -0.027

CLP1 (UniProt Q92989)
inactive: [1] -0.029 | [2] 0.039 | [3] -0.037 | [4] -0.039 | [5] 0.119 | [6] -0.065 | [7] -0.011 | [8] 0.029 | [9] -0.027 | [10] 0.026

CHML (UniProt P26374)
inactive: [1] -0.001 | [2] 0.013 | [3] 0.035 | [4] -0.011 | [5] -0.001 | [6] 0 | [7] -0.031 | [8] -0.015 | [9] -0.008 | [10] 0.002

CLIC1 (UniProt O00299)
inactive: [1] 0.014 | [2] -0.016 | [3] -0.004 | [4] 0.002 | [5] -0.008 | [6] 0.038 | [7] 0.031 | [8] -0.011 | [9] -0.012 | [10] -0.001

CHD3 isoform 3 (UniProt Q12873)
inactive: [1] 0.036 | [2] -0.004 | [3] -0.033 | [4] -0.047 | [5] 0.032 | [6] 0.005 | [7] 0.014 | [8] 0.029 | [9] -0.002 | [10] 0.008

CLEC16A isoform 2 (UniProt Q2KHT3)
inactive: [1] -0.499 | [2] 0.085 | [3] -0.079 | [4] 0.018 | [5] -0.054 | [6] -0.021 | [7] -0.365 | [8] -0.047 | [9] 0.054 | [10] -0.154

CHAF1B (UniProt Q13112)
inactive: [1] -0.034 | [2] 0.004 | [3] -0.001 | [4] -0.028 | [5] -0.008 | [6] -0.077 | [7] -0.04 | [8] 0.012 | [9] -0.012 | [10] 0.014

CHD8 (UniProt Q9HCK8)
inactive: [1] -0.005 | [2] -0.031 | [3] -0.006 | [4] -0.034 | [5] 0.022 | [6] -0.015 | [7] 0.02 | [8] 0.059 | [9] 0.041 | [10] -0.022

CHKB (UniProt Q9Y259)
inactive: [1] 0.018 | [2] -0.133 | [3] 0.067 | [4] 0.022 | [5] 0.01 | [6] -0.139 | [7] -0.064 | [8] 0.013 | [9] -0.012 | [10] -0.019

CMIP (UniProt Q8IY22)
inactive: [1] -0.034 | [2] 0.023 | [3] -0.063 | [4] 0.016 | [5] 0.008 | [6] -0.052 | [7] -0.045 | [8] 0.075 | [9] -0.008 | [10] -0.036

CKAP2 (UniProt Q8WWK9)
inactive: [1] 0.075 | [2] 0.07 | [3] 0.004 | [4] 0.036 | [5] -0.014 | [6] -0.098 | [7] -0.053 | [8] -0.015 | [9] -0.049 | [10] -0.023

CMPK1 (UniProt P30085)
inactive: [1] -0.012 | [2] 0.012 | [3] 0.001 | [4] -0.038 | [5] 0.014 | [6] -0.034 | [7] 0.017 | [8] 0 | [9] -0.02 | [10] 0.012

CHMP3 (UniProt Q9Y3E7)
inactive: [1] 0.003 | [2] -0.015 | [3] -0.019 | [4] 0.029 | [5] -0.017 | [6] -0.001 | [7] -0.069 | [8] -0.049 | [9] -0.024 | [10] -0.031

CHAMP1 (UniProt Q96JM3)
inactive: [1] -0.017 | [2] -0.017 | [3] -0.016 | [4] 0.003 | [5] -0.009 | [6] -0.028 | [7] 0 | [8] 0.014 | [9] 0.028 | [10] 0.016

CHD5 (UniProt Q8TDI0)
inactive: [1] -0.007 | [2] 0.021 | [3] 0.038 | [4] -0.022 | [5] 0.007 | [6] -0.082 | [7] 0.005 | [8] 0.02 | [9] -0.019 | [10] 0.01

CHD2 (UniProt O14647)
inactive: [1] -0.031 | [2] 0.003 | [3] -0.081 | [4] 0.035 | [5] 0.238 | [6] -0.027 | [7] 0.004 | [8] 0 | [9] 0.085

CHCHD7 isoform 4 (UniProt Q9BUK0)
inactive: [1] -0.147 | [2] 0.031 | [3] -0.044 | [4] -0.147 | [5] 0.041 | [6] -0.207 | [7] -0.117 | [8] 0.055 | [9] -0.04

CLUH, A0A494C0R8
inactive: [1] 0.026 | [2] 0.146 | [3] 0.028 | [4] -0.022 | [5] 0.015 | [6] -0.165 | [7] -0.033 | [8] 0.022 | [9] -0.045 | [10] 0.046

CHMP5 (UniProt Q9NZZ3)
inactive: [1] 0.007 | [2] 0.038 | [3] 0.025 | [4] -0.02 | [5] 0.007 | [6] -0.036 | [7] -0.029 | [8] -0.06 | [9] 0.001 | [10] -0.016
